Measurements reported in PubChem BioAssay AID1259282 (Sanger Institute, 2017)
This is an unselected part of 794 reagents tested. Over the whole deposit, 11 (1.4%) were called active. 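Calls flag knock-downs that lower viability without drug; drug synergy appears only in the synergy scores; exposure time not stated.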 No viability above 1 is reported: the scale is capped. Not stated in the record: the amount of reagent, the time to read-out.

Assay: 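siRNA screen across the kinome seeking drug combinations lethal to colorectal cancer cells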 (primary screen)
Cell system: DIFI human colorectal cancer cell line
Reagent: siRNA pool against human genes
Treatment: anchor drug at a mild dose (BYL719 1 µM, cetuximab 5 µg/ml, trametinib 10 nM) or DMSO vehicle; exposure time not given
Read-out: 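Robust z-score and replicate-mean viability versus non-targeting pool without drug, plus a synergy score for each low-dose anchor drug (BYL719, cetuximab, trametinib)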
Direction: robust z-score, knock-down alone: higher = more viable cells than typical knock-down; viability, knock-down alone: higher = more viable cells; synergy score with trametinib and synergy score with cetuximab and synergy score with BYL719: higher = stronger combined killing with drug
Active means: 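Essential when the robust z-score of the knock-down without drug falls below -3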
Calls: active = essential (knock-down alone, z below -3); inactive = not essential

| gene knocked down | robust z-score, knock-down alone | viability, knock-down alone (fraction of control) | synergy score with trametinib | synergy score with cetuximab | synergy score with BYL719 | call |
| --- | --- | --- | --- | --- | --- | --- |
| CAMK1G | 0.138 | 0.916 | 0.15 | 0.15 | -0.0303 | inactive |
| EFNA3 | 0.282 | 0.937 | -0.0421 | -0.0866 | -0.154 | inactive |
| MKNK2 | 0.715 | 1 | -0.0423 | -0.0692 | -0.22 | inactive |
| FGFR3 | -0.294 | 0.853 | -0.105 | -0.222 | -0.146 | inactive |
| SRC | 0.715 | 1 | 0.00221 | 0.0689 | -0.362 | inactive |
| STKLD1 | -0.887 | 0.767 | 0.0993 | -0.0219 | 0.223 | inactive |
| HUS1 | 0.715 | 1 | 0.0861 | -0.0444 | -0.336 | inactive |
| CKMT2 | 0.202 | 0.926 | 0.197 | 0.152 | 0.0509 | inactive |
| TPD52L3 | 0.396 | 0.954 | -0.144 | -0.136 | -0.391 | inactive |
| SLK | 0.69 | 0.996 | -0.00492 | -0.113 | -0.121 | inactive |
| WIPF1 | -4.08 | 0.303 | 0.00982 | -0.0483 | -0.0881 | active |
| ROCK2 | 0.715 | 1 | 0.169 | 0.0749 | -0.113 | inactive |
| ULK1 | -0.169 | 0.872 | 0.0793 | 0.0293 | -0.147 | inactive |
| NEK3 | -1.18 | 0.725 | -0.0584 | 0.0699 | -0.246 | inactive |
| TBK1 | 0.417 | 0.957 | 0.138 | 0.0608 | -0.0489 | inactive |
| WNK1 | 0.715 | 1 | 0.0108 | -0.0138 | -0.0978 | inactive |
| ITPKB | 0.715 | 1 | -0.0321 | -0.0778 | -0.281 | inactive |
| CDK18 | -1.92 | 0.618 | 0.0264 | -0.0895 | -0.14 | inactive |
| CDKN2D | -2.05 | 0.598 | 0.056 | 0.0864 | -0.0542 | inactive |
| ITPKA | -1.19 | 0.723 | -0.00606 | 0.0484 | -0.0275 | inactive |
| JAK1 | 0.715 | 1 | 0.116 | 0.0513 | 0.0894 | inactive |
| ERN1 | -1.25 | 0.715 | 0.0909 | 0.0624 | 0.156 | inactive |
| EPHA2 | 0.715 | 1 | -0.00203 | -0.101 | -0.281 | inactive |
| GCK | -1.83 | 0.631 | 0.0298 | 0.0475 | 0.11 | inactive |
| YES1 | 0.715 | 1 | -0.031 | 0.068 | -0.0544 | inactive |
| SRP72 | 0.715 | 1 | -0.118 | -0.123 | -0.243 | inactive |
| CDC7 | -0.0176 | 0.894 | 0.0133 | 0.0154 | -0.151 | inactive |
| RBKS | 0.715 | 1 | -0.144 | -0.158 | -0.273 | inactive |
| NUAK2 | -2.52 | 0.53 | -0.0144 | -0.105 | -0.293 | inactive |
| HK1 | 0.715 | 1 | -0.192 | -0.075 | -0.104 | inactive |
| PRKG2 | 0.566 | 0.978 | 0.129 | 0.134 | -0.111 | inactive |
| CDC42BPA | -0.948 | 0.758 | 0.129 | 0.0727 | -0.04 | inactive |
| NRBP2 | -0.799 | 0.78 | 0.0253 | -0.00406 | -0.165 | inactive |
| MST1R | 0.715 | 1 | -0.0818 | -0.0126 | -0.179 | inactive |
| NEK5 | 0.715 | 1 | 0.0658 | 0.0147 | -0.16 | inactive |
| ITPK1 | 0.679 | 0.995 | 0.0036 | -0.0282 | -0.213 | inactive |
| PRKAB2 | -1.25 | 0.714 | 0.179 | 0.0558 | 0.134 | inactive |
| GRK7 | -1.64 | 0.658 | 0.0158 | -0.0078 | -0.144 | inactive |
| TBCK | 0.715 | 1 | 0.103 | -0.00415 | -0.0836 | inactive |
| MAP3K19 | -0.336 | 0.847 | -0.0772 | -0.0295 | 0.000537 | inactive |
| MAP4K2 | 0.233 | 0.93 | -0.00224 | 0.0254 | 0.0721 | inactive |
| CSF1R | -2.66 | 0.509 | 0.0434 | 0.0193 | 0.115 | inactive |
| STYK1 | 0.613 | 0.985 | -0.0823 | -0.223 | -0.339 | inactive |
| GK2 | 0.324 | 0.943 | -0.144 | -0.0757 | -0.295 | inactive |
| PFKM | 0.715 | 1 | 0.049 | 0.0414 | -0.106 | inactive |
| TSSK6 | -0.823 | 0.777 | 0.026 | -0.0298 | -0.0554 | inactive |
| CSNK2B | 0.715 | 1 | 0.0866 | 0.0821 | -0.306 | inactive |
| PDXK | 0.715 | 1 | -0.305 | -0.173 | -0.142 | inactive |
| DCK | -2.51 | 0.532 | 0.0483 | -0.00523 | -0.0603 | inactive |
| CDC42BPB | 0.715 | 1 | 0.0478 | -0.00262 | -0.00487 | inactive |

Entries above whose gene name begins with I or i:
| gene knocked down | robust z-score, knock-down alone | viability, knock-down alone (fraction of control) | synergy score with trametinib | synergy score with cetuximab | synergy score with BYL719 | call |
| --- | --- | --- | --- | --- | --- | --- |
| ITPKB | 0.715 | 1 | -0.0321 | -0.0778 | -0.281 | inactive |
| ITPKA | -1.19 | 0.723 | -0.00606 | 0.0484 | -0.0275 | inactive |
| ITPK1 | 0.679 | 0.995 | 0.0036 | -0.0282 | -0.213 | inactive |
